# Results of single-concentration screens

Amino acid sequences for entries named in this document (tags omitted).
UniProt P9WNZ1, whole entry: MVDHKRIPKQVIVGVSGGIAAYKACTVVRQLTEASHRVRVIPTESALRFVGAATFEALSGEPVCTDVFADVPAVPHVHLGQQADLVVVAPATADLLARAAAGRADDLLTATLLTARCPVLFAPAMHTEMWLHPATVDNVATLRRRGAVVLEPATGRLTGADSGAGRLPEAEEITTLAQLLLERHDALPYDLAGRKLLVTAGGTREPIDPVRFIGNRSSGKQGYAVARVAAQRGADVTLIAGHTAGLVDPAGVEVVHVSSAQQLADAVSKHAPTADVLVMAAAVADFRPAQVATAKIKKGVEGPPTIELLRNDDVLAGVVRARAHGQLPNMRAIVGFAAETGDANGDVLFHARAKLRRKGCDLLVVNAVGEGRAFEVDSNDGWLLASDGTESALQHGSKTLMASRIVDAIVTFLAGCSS

A: 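Coenzyme A biosynthesis protein CoaBC, Mycobacterium tuberculosis (UniProt P9WNZ1). Enzyme assay of CoaBC with a phosphate dye (Biomol Green) read at 650 nm. Compounds at 30 µM. Direction is inferred from only a few compounds that gave an IC50; most scored high, so higher reads as stronger inhibition. Most strong results did not repeat in a second test. About 67,000 compounds were tested under these conditions; 0.06% (about 40) showed 50% or more at least once.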
B: 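Cell assay of Leishmania donovani living inside macrophages; the read-out is not stated. Concentration: 30 µM. The record gives no direction; compounds that gave an IC50 in retests scored well above the rest, so higher reads as stronger inhibition. About 69,000 compounds were tested under these conditions; 1.5% (about 1,000) showed 50% or more at least once.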

The filed quantity is “Percent Effect” (%).
How 0% and 100% were set is not recorded. Most values in the screen are low, and negative values occur.
This is an unselected part of the compounds tested.
Two or more numbers in one place are separate tests of the same structure; such repeats can differ widely.

COCC(=O)N1CCC2(COCc3cnc(NCc4ccco4)nc32)C1 (stereo not given) read A: -8.148%; B: 4.369%. With Cc1cnccc1Cn1ccnc1C1CCOC1 (stereo not given) the screen gave A: -8.434%; B: -1.414%. For CNC(=O)CCc1cc(C2CCCN2S(C)(=O)=O)nc(C)n1 (stereo not given) the result was A: -3.653%; B: 10.52%. Result for CCSC1(CNc2ncc(Br)cn2)CCOCC1 was A: 17.85%; B: 16.66%. N#CCCn1cnc2c(Br)cc(Br)cc2c1=O gave A: 2.02%; B: 38.91%.

Result for COCC(=O)NC(c1ccccc1)c1ccc2c(c1)CCCO2 (stereo not given) was A: 8.055%; B: 7.877%. CN1CCN(Cc2ccccc2Oc2nccc3occc23)CC1 read A: -4.423%; B: 25.87%. CCc1ncc(C(=O)NC(C)(C)C(=O)OC)s1 read A: -7.317%; B: -6.321%. For COc1ccc(-n2nc(C(C)C)nc2COC(C)C)cc1 the result was A: 2.813%; B: -35.15%. With c1ccc(-c2cc(CNCCN3CCOCC3)c3nnnn3c2)cc1 the screen gave A: 5.109%; B: 8.795% and 8.639%.

Result for CC(=O)NCC1CCN(C(=O)CCOc2ccc(C(C)C)cc2)CC1 was A: 6.717%; B: 15.95%. For CCN(CC)S(=O)(=O)CCNc1ncnc2cc(F)c(F)cc12 the result was A: 5.353%; B: 2.35%. O=C(O)C(F)(F)F.[H][C@@]12OCCN(C(=O)C3=CCCCC3)[C@@]1([H])CC[C@H]2Oc1ccccn1 read B: 16.4%. For OCCOCCNCC1(c2ccc(F)cc2)CCOC1 (stereo not given) the result was A: 4.573%; B: 23.72%. Result for N#Cc1cn(CCCN2CCc3ccccc32)c(=O)[nH]c1=O was A: -2.781%; B: -3.308%.

N#Cc1cccc(Cl)c1NCCc1n[nH]c(=O)[nH]1 read B: 12.39%. For CCN1CCOCC12CCN(c1ccc(C#N)cc1)CC2.O=C(O)C(F)(F)F the result was B: 0.5531%. For CC(=O)N1CC(=O)N(c2ccccc2)CC12CCN(Cc1cccs1)C2.O=C(O)C(F)(F)F (stereo not given) the result was B: 26.31%. For Cc1ccn(-c2ccc(C(=O)N3CCCC(C(N)=O)C3)cc2)n1 (stereo not given) the result was A: 3.599%; B: 13.06%. Cc1cnn(C2CCCN(C(=O)c3sccc3C#N)C2)c1 (stereo not given) gave A: 0.5181%; B: 12.67%.

Cc1noc(CN2CCN(Cc3cccs3)CC2)n1 gave A: -0.4819%; B: 6.787%. For O=S1(=O)NCC2(CCN(c3ncc(F)cn3)CC2)COc2ccccc21 the result was B: 14.34%. For Cc1cc(C(F)(F)F)nc(CCNC(C)Cn2nc(C)cc2C)n1 (stereo not given) the result was A: -5.06%; B: 5.446%. Result for [H][C@@]12CCN(C(=O)Cc3ccccc3C)C[C@]1(COC)CCO2 was B: 12.09%. For Cc1cccc(C(=O)N2C[C@@H]3CCN(c4cccnc4)C[C@@H]3C2)c1 the result was A: 13.99%.

CCOc1cc(C(=O)N2CCCC(c3noc(C)n3)C2)ccc1OC (stereo not given) gave A: 5.492%; B: 28.91%. For CCOc1ccc(C(=O)N(Cc2cnn(C)c2)C(C)C)cc1 the result was A: 12.74%; B: 15.93%. For CCc1ncc2c(n1)CN(C(=O)c1c(C)[nH]c(C(C)=O)c1C)C2 the result was A: 0.4%; B: 16.81%. For CCc1cnc2c(c1NCc1ccc(OC)cc1)c(=O)n(C)c(=O)n2C the result was A: 3.971%; B: 19.19%. Cc1cccc(C(C(=O)NCc2nc(-c3cccnc3)no2)N(C)C)c1 (stereo not given) read B: -15.79%.

O=C(CN(Cc1cccs1)C1CCS(=O)(=O)C1)NCC1CCCCC1 (stereo not given) gave B: 32.08%. CC(C)NC(=O)c1ccc2c(c1)nc1n2CCN(Cc2ccccc2)C1 read A: -2.368%; B: 0.934%. With CCc1c(C)nn(CCN2CC3(CCOC3)CCC2=O)c1C (stereo not given) the screen gave A: -0.1229%; B: 19.59%. For CN(C)CCOCc1nnc2n1CCN(Cc1cccs1)CC2 the result was A: -0.3699%. CC(C)c1cnc(CN(C)C2CCN(CCS(C)(=O)=O)C2)o1 (stereo not given) gave A: 5.396%; B: -28.18%.

For O=C(CCc1cccnc1)N1CCC2(CCN(CC3CCCC3)C2)C1.O=C(O)C(F)(F)F.O=C(O)C(F)(F)F (stereo not given) the result was B: 3.072%. CC(c1nc(C2CC2)no1)N1CCN(Cc2ccsc2)CC1 (stereo not given) read A: 2.332%; B: 41.36%. For N#Cc1ccc(CN2CCN(Cc3ccncc3Cl)CC2=O)cc1 the result was A: -5.357%; B: -27.05%. CCN(C)C(=O)c1ccc(N(C)Cc2cc(-c3ccncc3)no2)nc1 gave A: 1.599%; B: -2.031%. With Cc1cccc(C)c1CNC1(CCO)CCOCC1 the screen gave B: 2.99%.

For O=C(COc1ccc(Cl)cc1)NCc1nncn1C1CC1 the result was A: -1.351%; B: 8.34%. CCc1ccc(C(=O)O)cc1S(=O)(=O)Nc1ccc(F)c(C#N)c1 gave A: 3.203%; B: 9.122%. Result for CC(C)NC1CCCc2nc(-c3ccccc3)ncc21 (stereo not given) was A: -5.533%; B: 8.87%.

For reference, 4 entries once more:

{"compound": "O=S1(=O)NCC2(CCN(c3ncc(F)cn3)CC2)COc2ccccc21", "B": 14.34}
{"compound": "c1ccc(-c2cc(CNCCN3CCOCC3)c3nnnn3c2)cc1", "A": 5.109, "B": "8.795 and 8.639"}
{"compound": "CCc1ccc(C(=O)O)cc1S(=O)(=O)Nc1ccc(F)c(C#N)c1", "A": 3.203, "B": 9.122}
{"compound": "CN(C)CCOCc1nnc2n1CCN(Cc1cccs1)CC2", "A": -0.3699}

Measurements from “University of Dundee, Small-Polar-MMV Screening Library” (2021), ChEMBL document CHEMBL3988442.